The list shows a part of the results. Single values are uncertain, as repeats are few or missing.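 Imaging used 1,536-well plates; nuclei positive for cleaved PARP by antibody were divided by total DNA-stained nuclei to yield the apoptosis fraction. Doses for screening kept most cells viable, and cell lines differ markedly in resting and induced cleaved-PARP levels.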
What follows are compounds tested on MeWo (assay: cleaved PARP positive nuclei fraction relative to DMSO control; melanoma cells; higher = more apoptosis). Conditions: library dose: low library concentration; 72 h.

SMILES	cleaved PARP positive nuclei fraction
Cc1cc(Nc2cc(N3CCN(C)CC3)nc(/C=C/c3ccccc3)n2)n[nH]1 + Cc1cc(N2CCOCC2)cc2[nH]c(-c3c(NC[C@@H](O)c4cccc(Cl)c4)cc[nH]c3=O)nc12 [BMS536924] (first compound 0.04 µM, partner dose 0.2 µM)	113%
Cn1c(=O)n(-c2ccc(C(C)(C)C#N)cc2)c2c3cc(-c4cnc5ccccc5c4)ccc3ncc21 + NC(=O)Nc1cc(-c2cccc(F)c2)sc1C(=O)N[C@H]1CCCNC1 [AZD7762] (first compound 0.004 µM, partner dose 0.02 µM)	72.8%
C=C(c1ccc(C(=O)O)cc1)c1cc2c(cc1C)C(C)(C)CCC2(C)C [Bexarotene] + O=C(Nc1ccccc1)c1cc([N+](=O)[O-])ccc1Cl [GW9662] (first compound 2 µM, partner dose 2 µM)	118%
CNC(=O)c1cc(Oc2ccc(NC(=O)Nc3ccc(Cl)c(C(F)(F)F)c3)cc2)ccn1 [sorafenib] + COC(=O)c1sccc1S(=O)(=O)Nc1ccc(Nc2ccccc2)cc1OC [GSK0660] (first compound 0.4 µM, partner dose 1 µM)	138%
CNC(=O)c1cc(Oc2ccc(NC(=O)Nc3ccc(Cl)c(C(F)(F)F)c3)cc2)ccn1 [sorafenib] + CCCCCCCCCCCC1=C(O)C(=O)C=C(O)C1=O [Embelin] (first compound 0.4 µM, partner dose 1.2 µM)	61.6%
CS(=O)(=O)CCNCc1ccc(-c2ccc3ncnc(Nc4ccc(OCc5cccc(F)c5)c(Cl)c4)c3c2)o1 [lapatinib] + CN(C)S(=O)(=O)c1ccc2c(c1)/C(=C/c1cc3c([nH]1)CCCC3)C(=O)N2 [SU6656] (first compound 0.8 µM, partner dose 0.4 µM)	113%
